Data from publication PMC9820341.
Results are given in words; binding and its absence hold for the method and conditions named.

Target: recombinant mouse prion protein (mouse) (UniProt P04925)
Assay: thioflavin T amyloid formation assay (PAFA); both purified

recombinant mouse prion protein (from UniProt P04925 23-230)
binding: no binding (condition: with > 0.01 mg/mL CpV extract)
